Some of the results follow. Shown are side measurements of this screen, not its main read-out; they come without a call. Compounds called inactive in the main read-out are mostly missing here. Potencies come from curve fits of mixed quality, noted in brackets.

The assay in a line: qHTS for identification of novel therapeutic agents for treatment of microphthalmiaassociated transcription factor (MiT) renal cell carcinoma (RCC) (AID 1963991). As to conditions: CellTiter-Glo, 48 h; for z-score: stronger effect = lower value. In outline: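 Curves over 11 concentrations were fitted to CellTiter-Glo luminescence, scaled between empty wells (0%) and DMSO (100%) viability. Cells were UOK109, UOK124 and UOK145 TFE3-fusion RCC lines at 500/well, exposed 48 hours at 37 C.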
Background: Quantitative high-throughput screening tests each substance at several concentrations.

Where [1] appears, read: TFE3-RCC UOK109 viability, measured here: UOK109 Z-AUC.
Setting [2] is: TFE3-RCC viability, measured here: UOK124 Z-AUC.
Where [3] appears, read: TFE3-RCC viability, measured here: UOK145 Z-AUC.
The mark [4] stands for this setting: TFE3-RCC viability, measured here: UOK145 cell viability.
Where [5] appears, read: TFE3-RCC viability, measured here: UOK124 cell viability.

With `Cc1cnn(C)c1C(=O)Nc1cc(Nc2ccc3c(C=Cc4ccccn4)n[nH]c3c2)ccc1F`, the z-score was -0.534 under setting [1], -0.264 under setting [2] and -1.28 under setting [3]. In addition, the AC50 (commonly the concentration giving half of the maximal activity seen) under setting [4] was 18.7 µM [falling, partial curve].

Take `O=C(NC(Cc1cc(=O)[nH]c2ccccc12)C(=O)O)c1ccc(Cl)cc1` (centres undefined): the z-score is, setting by setting: under setting [1], -0.306; under setting [2], 0.53; under setting [3], -1.17. In addition, the half-maximal activity concentration (AC50) under setting [4] is 33.2 µM [falling, single point].

As for `C[C@]1(CO)CN(c2cc(C(=O)Nc3ccc4c(c3)-c3c(c(C(N)=O)nn3-c3ccc(F)cc3)CC4)c(Cl)cn2)C[C@@]1(C)CO`, the z-score reads like this: under setting [1], -0.547; under setting [2], 0.302; under setting [3], -0.78. In addition, the AC50 by setting is: under setting [5], 7.43 µM [falling, full curve]; under setting [4], 7.43 µM [falling, full curve].

In the case of `CN1[C@H]2CC[C@H]1CC(OC(=O)c1c[nH]c3ccccc13)C2` (some centres undefined), the z-score stood at 0.65 under setting [1], 0.835 under setting [2] and 0.431 under setting [3]. For the same molecule, the concentration at half-maximal activity (AC50) under setting [4] is 14.8 µM [falling, partial curve, poor fit].

Molecule `O=C(O)C[C@H](O)C[C@H](O)C=Cc1c(C2CC2)nc2ccccc2c1-c1ccc(F)cc1` came in with a z-score under setting [1] of 0.158, a z-score under setting [2] of -0.627 and a z-score under setting [3] of -0.0354. The AC50 by setting is: under setting [5], 4.69 µM [falling, full curve]; under setting [4], 16.6 µM [falling, partial curve].

As for `O=C1C(c2c(O)[nH]c3ccccc23)=Nc2ccccc21`, the z-score reads like this: under setting [1], -0.491; under setting [2], 0.151; under setting [3], 0.195. Besides, the concentration at half-maximal activity (AC50) under setting [4] is 18.7 µM [falling, partial curve].

For the molecule `C[C@@]1(c2cc(-c3cncnc3)c(F)cc2F)CCSC(N)=N1`, the z-score reads like this: under setting [1], -0.622; under setting [2], 0.0917; under setting [3], 0.628. Also, the AC50 by setting is: under setting [5], 3.72 µM [falling, full curve]; under setting [4], 23.5 µM [falling, single point].

Regarding `C[C@H]1[C@H](O)O[C@@H]2O[C@@]3(C)CC[C@@H]4[C@H](C)CC[C@@H]1[C@@]24OO3`, the z-score reads like this: under setting [1], -0.295; under setting [2], -0.261; under setting [3], -0.112. For the same molecule, the concentration at half-maximal activity (AC50) reads like this: under setting [5], 23.5 µM [falling, single point]; under setting [4], 18.7 µM [falling, partial curve, poor fit].

In the case of `C[C@@H]1C(=O)O[C@H]2CC34[C@H]5C[C@@H](C(C)(C)C)C36[C@H](OC(=O)[C@@H]6O)O[C@@]4(C(=O)O5)[C@]21O` (some centres undefined), the z-score reads like this: under setting [1], -5.32; under setting [2], 0.751; under setting [3], -2.72. For the same molecule, the concentration at half-maximal activity (AC50) under setting [4] was 1.05 µM [rising, full curve, poor fit].

`CC=CCC=CCCC(=O)[C@H]1O[C@@H]1C(N)=O` came in with a z-score under setting [1] of 0.716, a z-score under setting [2] of 0.641 and a z-score under setting [3] of 0.513. The AC50 under setting [5] was 29.6 µM [falling, single point].

Consider `CC=CC[C@@H](C)C(=O)[C@H]1C(=O)N[C@@H](C(C)C)C(=O)N(C)CC(=O)N(C)[C@@H](CC(C)C)C(=O)N[C@@H](C(C)C)C(=O)N(C)[C@@H](CC(C)C)C(=O)N[C@@H](C)C(=O)N[C@H](C)C(=O)N(C)[C@@H](CC(C)C)C(=O)N(C)[C@@H](CC(C)C)C(=O)N(C)[C@@H](C(C)C)C(=O)N1C`, for which the z-score under setting [1] is 0.434, the z-score under setting [2] amounted to 0.27 and the z-score under setting [3] was 0.00707. The AC50 under setting [5] was 7.43 µM [falling, full curve].

Turning to `CCC(=O)NC[C@H](Cc1ccc(OCCc2nc(-c3ccccc3)oc2C)cc1)NC(C)=CC(=O)c1ccc(C(F)(F)F)cc1`, the z-score runs as follows: under setting [1], -0.354; under setting [2], 0.163; under setting [3], -0.285. The concentration at half-maximal activity (AC50) under setting [4] is 16.6 µM [falling, partial curve].

As for `CC(S)C(=O)NCC(=O)O` (centres undefined), the z-score under setting [1] is 0.689, the z-score under setting [2] is 0.124 and the z-score under setting [3] was 1.19. Further, the AC50 under setting [4] was 37.2 µM [falling, single point].

With `CCCCCCCc1ccc(CCc2cccc(O)c2C(=O)O)cc1`, the z-score under setting [1] is 0.613, the z-score under setting [2] is -1.16 and the z-score under setting [3] worked out at 0.339. Moreover, the AC50 under setting [4] was 23.5 µM [falling, single point].

Consider `CNC[C@H](O)c1cccc(O)c1`, for which the z-score was 0.447 under setting [1], 0.656 under setting [2] and 2.59 under setting [3]. Also, the AC50 under setting [4] was 0.00187 µM [rising, full curve, poor fit].

In the case of `C[C@H](NC(=O)C(C#N)=Cc1cccc(Br)n1)c1ccccc1`, the z-score by setting is: under setting [1], 0.0279; under setting [2], -1.35; under setting [3], 0.0444. Moreover, the concentration at half-maximal activity (AC50) is, setting by setting: under setting [5], 2.96 µM [falling, full curve]; under setting [4], 16.6 µM [falling, partial curve].

`C[C@H](NC(=O)Cc1cc(F)cc(F)c1)C(=O)N[C@@H]1C(=O)N(C)c2ccccc2-c2ccccc21`: the z-score is -0.402 under setting [1], -0.262 under setting [2] and -0.443 under setting [3]. Besides, the concentration at half-maximal activity (AC50) reads like this: under setting [5], 37.2 µM [falling, single point]; under setting [4], 14.8 µM [falling, partial curve].

Molecule `CC(C)n1c(C=C[C@H](O)C[C@H](O)CC(=O)O)c(-c2ccc(F)cc2)c2ccccc21` registered a z-score under setting [1] of -0.288, a z-score under setting [2] of -0.181 and a z-score under setting [3] of 0.408. For the same molecule, the AC50 under setting [5] is 1.48 µM [falling, full curve] and the concentration at half-maximal activity (AC50) under setting [4] was 18.7 µM [falling, partial curve].

On to `CNc1nc(-c2ccc3c(N)n[nH]c3c2)cc(N2C[C@@H](C(=O)NC3CCCCC3)CC[C@@H]2C)n1`, for which the z-score reads like this: under setting [1], -0.236; under setting [2], -2.71; under setting [3], -0.301. For the same molecule, the AC50 was 37.2 µM [falling, single point] under setting [5] and 14.8 µM [falling, partial curve] under setting [4].

`CC(=O)NCC(=O)N1[C@H]2CC[C@H]1c1cc(Nc3ncc(C(F)(F)F)c(NC4CCC4)n3)ccc12`: the z-score is -0.15 under setting [1], -0.566 under setting [2] and 0.192 under setting [3]. The concentration at half-maximal activity (AC50) was 26.4 µM [falling, partial curve] under setting [5] and 18.7 µM [falling, partial curve] under setting [4].

Values taken from PubChem BioAssay (NCATS).
